Laboratory results from publication PMC4357442.
Results are given in words; binding and its absence hold for the method and conditions named. In cells and extracts the contact can be indirect. Some entries that bind do so weakly or less than the wild type. Sequences can lack the tags named with a protein.

T1: Smc5-6Flag (S. cerevisiae (budding yeast)) (UniProt Q08204)
T1 sequence: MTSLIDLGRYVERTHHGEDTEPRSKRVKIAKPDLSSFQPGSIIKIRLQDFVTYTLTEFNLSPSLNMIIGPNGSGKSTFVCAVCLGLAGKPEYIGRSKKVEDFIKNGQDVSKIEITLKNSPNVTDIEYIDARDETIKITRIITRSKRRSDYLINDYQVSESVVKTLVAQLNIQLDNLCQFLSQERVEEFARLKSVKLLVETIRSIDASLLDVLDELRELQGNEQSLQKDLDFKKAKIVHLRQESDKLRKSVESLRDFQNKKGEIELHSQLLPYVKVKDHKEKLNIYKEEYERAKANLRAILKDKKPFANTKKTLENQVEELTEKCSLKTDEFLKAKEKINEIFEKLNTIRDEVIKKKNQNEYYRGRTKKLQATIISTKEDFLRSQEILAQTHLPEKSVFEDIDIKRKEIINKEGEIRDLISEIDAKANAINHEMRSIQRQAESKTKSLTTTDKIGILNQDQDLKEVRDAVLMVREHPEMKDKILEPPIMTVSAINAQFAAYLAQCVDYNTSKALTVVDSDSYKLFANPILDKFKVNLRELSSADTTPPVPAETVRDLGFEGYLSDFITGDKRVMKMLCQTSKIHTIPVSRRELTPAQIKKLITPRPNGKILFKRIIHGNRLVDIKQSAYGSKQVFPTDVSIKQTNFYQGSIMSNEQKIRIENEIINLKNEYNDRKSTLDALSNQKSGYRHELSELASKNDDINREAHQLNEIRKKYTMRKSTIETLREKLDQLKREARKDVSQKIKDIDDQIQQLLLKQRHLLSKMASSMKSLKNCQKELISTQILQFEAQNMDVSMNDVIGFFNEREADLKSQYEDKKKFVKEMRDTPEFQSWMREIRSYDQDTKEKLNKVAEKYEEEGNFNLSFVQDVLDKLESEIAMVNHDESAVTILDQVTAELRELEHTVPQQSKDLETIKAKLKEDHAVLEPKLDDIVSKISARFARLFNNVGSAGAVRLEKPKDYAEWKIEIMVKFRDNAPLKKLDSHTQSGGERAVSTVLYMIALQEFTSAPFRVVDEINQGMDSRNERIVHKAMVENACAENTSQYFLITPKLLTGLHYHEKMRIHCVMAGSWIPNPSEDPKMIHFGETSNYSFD

T2: Mms21-6HA (S. cerevisiae (budding yeast)) (UniProt P38632)
T2 sequence: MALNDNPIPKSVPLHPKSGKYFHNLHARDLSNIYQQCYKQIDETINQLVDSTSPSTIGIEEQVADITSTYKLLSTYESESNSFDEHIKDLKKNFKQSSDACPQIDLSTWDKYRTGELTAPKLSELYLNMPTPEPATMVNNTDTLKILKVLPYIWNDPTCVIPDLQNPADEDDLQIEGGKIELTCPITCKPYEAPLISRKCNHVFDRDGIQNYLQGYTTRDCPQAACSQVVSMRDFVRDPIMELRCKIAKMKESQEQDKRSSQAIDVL

T3: Nse4-6HA (S. cerevisiae (budding yeast)) (UniProt P43124)
T3 sequence: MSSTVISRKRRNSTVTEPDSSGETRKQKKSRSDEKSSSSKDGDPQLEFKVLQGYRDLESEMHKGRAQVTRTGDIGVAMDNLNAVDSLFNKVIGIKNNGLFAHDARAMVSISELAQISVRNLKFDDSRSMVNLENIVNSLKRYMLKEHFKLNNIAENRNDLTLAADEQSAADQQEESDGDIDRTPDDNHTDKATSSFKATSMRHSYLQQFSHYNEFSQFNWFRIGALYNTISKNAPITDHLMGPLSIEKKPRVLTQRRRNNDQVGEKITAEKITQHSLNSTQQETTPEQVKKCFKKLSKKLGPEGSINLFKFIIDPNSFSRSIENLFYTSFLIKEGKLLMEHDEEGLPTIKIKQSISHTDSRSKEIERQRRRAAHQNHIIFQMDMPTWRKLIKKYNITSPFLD


Assays:
[1] = target: T1, Smc5-6Flag (S. cerevisiae (budding yeast)); assay: co-IP; Smc5-6Flag immunoprecipitation (anti-FLAG M2 gel) from wild type, nse3-2 or nse5-2 cells kept at 25°C or shifted to 37°C for 2 h; western blot of 9myc-tagged Nse proteins or Mms21-6HA
[2] = target: T2, Mms21-6HA (S. cerevisiae (budding yeast)); assay: co-IP; anti-HA immunoprecipitation from MMS21-6HA or NSE4-6HA yeast cells transformed with centromeric plasmids expressing SMC5-9myc alleles; western blot
[3] = target: T3, Nse4-6HA (S. cerevisiae (budding yeast)); assay: as above

| Binder | binding [1] | binding [2] | binding [3] |
| --- | --- | --- | --- |
| Nse5-9myc (wild type) (protein, UniProt Q03718 1-556) MDGALINSVLYVSPRNGAHYFVELTEKHLLAFEMLNSMCLLENYDHVLLFLECQFGKSHNLAVIPFDIILVLFTLSTLSEYYKEPILRANDPYNTSRETLSRRALKLLQKYLAILKEFDSEQYNLYDLELLRCQFFLAIDTLTPKKQKWGFDRFRRTKSESGVTYRQNASVDPELDQAKTFKNPYRSYISCLEQRNTILGNRLLNLKLNEPGEFINMILWTLSNSLQESTPLFLSSHEIWMPLLEILIDLFSCRQDYFIQHEVAQNVSKSLFVQRLSESPLAVFFESLNTRNFANRFSEYVFLNCDYKLPSDNYATPVHPVYNGENTIVDTYIPTIKCSPLYKSQKSLALRRKLIGSCFKLLLRVPDGHRLITPRIVADDVIQGISRTLASFNDILQFKKFFMTENLSQESYFIPLLAEGTLSEILKDTQECVVILTLVENLSDGVSFCNEVIGLVKSKCFAFTEQCSQASYEEAVLNIEKCDVCLLVLLRYLLHLIGTEAILDAKEQLEMLHAIEKNDSGRRQWAKALNLGNDPPLLYPIVSQMFGVHDKSVIIE | binds |  |  |
| Mms21-6HA (protein, UniProt P38632 1-267) MALNDNPIPKSVPLHPKSGKYFHNLHARDLSNIYQQCYKQIDETINQLVDSTSPSTIGIEEQVADITSTYKLLSTYESESNSFDEHIKDLKKNFKQSSDACPQIDLSTWDKYRTGELTAPKLSELYLNMPTPEPATMVNNTDTLKILKVLPYIWNDPTCVIPDLQNPADEDDLQIEGGKIELTCPITCKPYEAPLISRKCNHVFDRDGIQNYLQGYTTRDCPQAACSQVVSMRDFVRDPIMELRCKIAKMKESQEQDKRSSQAIDVL | binds |  |  |
| smc5-S2-9myc (protein, UniProt Q08204 1-1093) MTSLIDLGRYVERTHHGEDTEPRSKRVKIAKPDLSSFQPGSIIKIRLQDFVTYTLTEFNLSPSLNMIIGPNGSGKSTFVCAVCLGLAGKPEYIGRSKKVEDFIKNGQDVSKIEITLKNSPNVTDIEYIDARDETIKITRIITRSKRRSDYLINDYQVSESVVKTLVAQLNIQLDNLCQFLSQERVEEFARLKSVKLLVETIRSIDASLLDVLDELRELQGNEQSLQKDLDFKKAKIVHLRQESDKLRKSVESLRDFQNKKGEIELHSQLLPYVKVKDHKEKLNIYKEEYERAKANLRAILKDKKPFANTKKTLENQVEELTEKCSLKTDEFLKAKEKINEIFEKLNTIRDEVIKKKNQNEYYRGRTKKLQATIISTKEDFLRSQEILAQTHLPEKSVFEDIDIKRKEIINKEGEIRDLISEIDAKANAINHEMRSIQRQAESKTKSLTTTDKIGILNQDQDLKEVRDAVLMVREHPEMKDKILEPPIMTVSAINAQFAAYLAQCVDYNTSKALTVVDSDSYKLFANPILDKFKVNLRELSSADTTPPVPAETVRDLGFEGYLSDFITGDKRVMKMLCQTSKIHTIPVSRRELTPAQIKKLITPRPNGKILFKRIIHGNRLVDIKQSAYGSKQVFPTDVSIKQTNFYQGSIMSNEQKIRIENEIINLKNEYNDRKSTLDALSNQKSGYRHELSELASKNDDINREAHQLNEIRKKYTMRKSTIETLREKLDQLKREARKDVSQKIKDIDDQIQQLLLKQRHLLSKMASSAKSLANCQKELISTQILQFEAQNMDVSMNDVIGFFNEREADLKSQYEDKKKFVKEMRDTPEFQSWMREIRSYDQDTKEKLNKVAEKYEEEGNFNLSFVQDVLDKLESEIAMVNHDESAVTILDQVTAELRELEHTVPQQSKDLETIKAKLKEDHAVLEPKLDDIVSKISARFARLFNNVGSAGAVRLEKPKDYAEWKIEIMVKFRDNAPLKKLDSHTQSGGERAVSTVLYMIALQEFTSAPFRVVDEINQGMDSRNERIVHKAMVENACAENTSQYFLITPKLLTGLHYHEKMRIHCVMAGSWIPNPSEDPKMIHFGETSNYSFD |  | binds | binds |
| smc5-S1-9myc (protein, UniProt Q08204 1-1093) MTSLIDLGRYVERTHHGEDTEPRSKRVKIAKPDLSSFQPGSIIKIRLQDFVTYTLTEFNLSPSLNMIIGPNGSGKSTFVCAVCLGLAGKPEYIGRSKKVEDFIKNGQDVSKIEITLKNSPNVTDIEYIDARDETIKITRIITRSKRRSDYLINDYQVSESVVKTLVAQLNIQLDNLCQFLSQERVEEFARLKSVKLLVETIRSIDASLLDVLDELRELQGNEQSLQKDLDFKKAKIVHLRQESDKLRKSVESLRDFQNKKGEIELHSQLLPYVKVKDHKEKLNIYKEEYERAKANLRAILKDKKPFANTKKTLENQVEELTEKCSLKTDEFLKAKEKINEIFEKLNTIRDEVIKKKNQNEYYRGRTKKLQATIISTKEDFLRSQEILAQTHLPEKSVFEDIDIKRKEIINKEGEIRDLISEIDAKANAINHEMRSIQRQAESKTKSLTTTDKIGILNQDQDLKEVRDAVLMVREHPEMKDKILEPPIMTVSAINAQFAAYLAQCVDYNTSKALTVVDSDSYKLFANPILDKFKVNLRELSSADTTPPVPAETVRDLGFEGYLSDFITGDKRVMKMLCQTSKIHTIPVSRRELTPAQIKKLITPRPNGKILFKRIIHGNRLVDIKQSAYGSKQVFPTDVSIKQTNFYQGSIMSNEQKIRIENEIINLKNEYNDRKSTLDALSNQKSGYRHELSELASKNDDINREAHQLNEIRKKYTMRKSTIETLREKLDQLKREARKDVSQKIKDIDDQIQQLLLKQRHLLSKMASSMKSLKNCQKELRSTQRLQAEAQAMDVSMNDVIGFFNEREADLKSQYEDKKKFVKEMRDTPEFQSWMREIRSYDQDTKEKLNKVAEKYEEEGNFNLSFVQDVLDKLESEIAMVNHDESAVTILDQVTAELRELEHTVPQQSKDLETIKAKLKEDHAVLEPKLDDIVSKISARFARLFNNVGSAGAVRLEKPKDYAEWKIEIMVKFRDNAPLKKLDSHTQSGGERAVSTVLYMIALQEFTSAPFRVVDEINQGMDSRNERIVHKAMVENACAENTSQYFLITPKLLTGLHYHEKMRIHCVMAGSWIPNPSEDPKMIHFGETSNYSFD |  | no binding | binds |
| smc5-S3-9myc (protein, UniProt Q08204 1-1093) MTSLIDLGRYVERTHHGEDTEPRSKRVKIAKPDLSSFQPGSIIKIRLQDFVTYTLTEFNLSPSLNMIIGPNGSGKSTFVCAVCLGLAGKPEYIGRSKKVEDFIKNGQDVSKIEITLKNSPNVTDIEYIDARDETIKITRIITRSKRRSDYLINDYQVSESVVKTLVAQLNIQLDNLCQFLSQERVEEFARLKSVKLLVETIRSIDASLLDVLDELRELQGNEQSLQKDLDFKKAKIVHLRQESDKLRKSVESLRDFQNKKGEIELHSQLLPYVKVKDHKEKLNIYKEEYERAKANLRAILKDKKPFANTKKTLENQVEELTEKCSLKTDEFLKAKEKINEIFEKLNTIRDEVIKKKNQNEYYRGRTKKLQATIISTKEDFLRSQEILAQTHLPEKSVFEDIDIKRKEIINKEGEIRDLISEIDAKANAINHEMRSIQRQAESKTKSLTTTDKIGILNQDQDLKEVRDAVLMVREHPEMKDKILEPPIMTVSAINAQFAAYLAQCVDYNTSKALTVVDSDSYKLFANPILDKFKVNLRELSSADTTPPVPAETVRDLGFEGYLSDFITGDKRVMKMLCQTSKIHTIPVSRRELTPAQIKKLITPRPNGKILFKRIIHGNRLVDIKQSAYGSKQVFPTDVSIKQTNFYQGSIMSNEQKIRIENEIINLKNEYNDRKSTLDALSNQKSGYRHELSELASKNDDINREAHQLNEIRKKYTMRKSTIETLREKLDQLKREARKDVSQKIKDIDDQIAQLALKQRHLASKMASSMKSLKNCQKELISTQILQFEAQNMDVSMNDVIGFFNEREADLKSQYEDKKKFVKEMRDTPEFQSWMREIRSYDQDTKEKLNKVAEKYEEEGNFNLSFVQDVLDKLESEIAMVNHDESAVTILDQVTAELRELEHTVPQQSKDLETIKAKLKEDHAVLEPKLDDIVSKISARFARLFNNVGSAGAVRLEKPKDYAEWKIEIMVKFRDNAPLKKLDSHTQSGGERAVSTVLYMIALQEFTSAPFRVVDEINQGMDSRNERIVHKAMVENACAENTSQYFLITPKLLTGLHYHEKMRIHCVMAGSWIPNPSEDPKMIHFGETSNYSFD |  |  | binds |
